# Test results as given in the supplement of paper PMC8728848.
# The list shows a part of the results.
# B1: GS7807F-bth-514-18-514 (Bacteroides thetaiotaomicron) (protein)
# chain: AGSCTGNFEEYNTNQFQIHEADPSTLMKSMIETIVNIQQNDSQMMDQMVGQLGGYLTCANVWSGTNFGTFNQSDAWNAGPWNTNFEKIYGNFFQIQEATNESGHYYAFARMIRAITMLRVADCYGPMPYSQVKKGNFYVAYDTEEQVYKNIMEDFASAANVLYNYYKDTNGNAPLASNDPVFSGNYANWARLANSMRLRVAIRISTAYPEMAKENAEAAASHEAGLIEANNDNAMMDCGSQTNPYQLAAVSWGDLRVNANIVDYMNGYGDPRMSKYFNHSTFTGHTQEYVGMRSGEDGFAKSDVAGYSIPAITGTSKLLVFCAAETAFLRAEGKLKNWSVGNKSAKEYYEEGIKLSMEQYGTTMPDNYLTNTEKPTVSHNNDPRGHAYTISNTVAVAWNDNNEEENLQRIITQKWIANYPLGLEAWAEYRRTGYPELYPCIDNLSPSGVDSKRGMRRLRFPYTEVQNNHSNYQQGVSYLKNGGPDNEATDLSWGKTN
# Experiments:
# Experiment in all cases: glycan array binding signal (z-score within array); higher = stronger binding
# Conditions in all cases: glycan notation: IUPAC condensed, linker removed
# [1] = biological target: GlcNAc(b1-3)Man
# Method in brief: (§1)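 Glycan array binding is given as a within-array Z-score, which can be read as non-binding when negative. The arrays, 3228 of them, came from the Consortium for Functional Glycomics database and were retained only where the protein sequence was available. Z-scores were averaged across arrays of the same protein sequence at different concentrations or buffers and across linkers.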
# [2] = biological target: GlcNAc(b1-3)[GlcNAc(b1-4)][GlcNAc(b1-6)]GlcNAc
# Method in brief: as §1
# [3] = biological target: GlcNAc(b1-3)[GlcNAc(b1-6)]Gal(b1-4)GlcNAc
# Method in brief: as §1
# [4] = biological target: GlcNAc(b1-3)[GlcNAc(b1-6)]GalNAc
# Method in brief: as §1
# [5] = biological target: GlcNAc(b1-4)Gal(b1-4)GlcNAc
# Method in brief: as §1
# [6] = biological target: GlcNAc(b1-4)GlcNAc
# Method in brief: as §1
# [7] = biological target: GlcNAc(b1-4)GlcNAc(b1-4)GlcNAc
# Method in brief: as §1
# [8] = biological target: GlcNAc(b1-4)GlcNAc(b1-4)GlcNAc(b1-4)GlcNAc(b1-4)GlcNAc
# Method in brief: as §1
# [9] = biological target: GlcNAc(b1-4)GlcNAc(b1-4)GlcNAc(b1-4)GlcNAc(b1-4)GlcNAc(b1-4)GlcNAc
# Method in brief: as §1
# [10] = biological target: GlcNAc(b1-4)[GlcNAc(b1-6)]GalNAc
# Method in brief: as §1
# [11] = biological target: GlcNAc(b1-6)Gal(b1-4)GlcNAc
# Method in brief: as §1
# [12] = biological target: GlcNAc(b1-6)GalNAc
# Method in brief: as §1
# [13] = biological target: GlcNAc6S(b1-3)Gal(b1-4)GlcNAc
# Method in brief: as §1
# [14] = biological target: Kdn(a2-3)Gal(b1-3)GalNAc
# Method in brief: as §1
# [15] = biological target: Kdn(a2-3)Gal(b1-3)GlcNAc
# Method in brief: as §1
# [16] = biological target: Kdn(a2-3)Gal(b1-4)Glc
# Method in brief: as §1
# [17] = biological target: Kdn(a2-3)Gal(b1-4)GlcNAc
# Method in brief: as §1
# [18] = biological target: Kdn(a2-3)Gal(b1-4)[Fuc(a1-3)]GlcNAc
# Method in brief: as §1
# [19] = biological target: Kdn(a2-6)Gal(b1-4)GlcNAc
# Method in brief: as §1
# [20] = biological target: Man(a1-2)Man(a1-2)Man(a1-3)Man
# Method in brief: as §1
# [21] = biological target: Man(a1-2)Man(a1-2)Man(a1-6)[Man(a1-3)]Man
# Method in brief: as §1
# [22] = biological target: Man(a1-2)Man(a1-3)Man
# Method in brief: as §1
# [23] = biological target: Man(a1-2)Man(a1-3)[Man(a1-2)Man(a1-6)]Man
# Method in brief: as §1
# [24] = biological target: Man(a1-2)Man(a1-3)[Man(a1-2)Man(a1-6)]Man(a1-6)[Man(a1-2)Man(a1-2)Man(a1-3)]Man
# Method in brief: as §1
# [25] = biological target: Man(a1-2)Man(a1-3)[Man(a1-2)Man(a1-6)]Man(a1-6)[Man(a1-2)Man(a1-2)Man(a1-3)]Man(b1-4)GlcNAc(b1-4)GlcNAc
# Method in brief: as §1
# [26] = biological target: Man(a1-2)Man(a1-3)[Man(a1-6)]Man(a1-6)[Man(a1-2)Man(a1-3)]Man(b1-4)GlcNAc(b1-4)GlcNAc
# Method in brief: as §1
# [27] = biological target: Man(a1-2)Man(a1-6)[Man(a1-3)]Man(a1-6)[Man(a1-2)Man(a1-2)Man(a1-3)]Man
# Method in brief: as §1
# [28] = biological target: Man(a1-2)Man(a1-6)[Man(a1-3)]Man(a1-6)[Man(a1-2)Man(a1-2)Man(a1-3)]Man(b1-4)GlcNAc(b1-4)GlcNAc
# Method in brief: as §1
# [29] = biological target: Man(a1-3)[Man(a1-6)]Man
# Method in brief: as §1
# [30] = biological target: Man(a1-3)[Man(a1-6)]Man(a1-6)[Man(a1-2)Man(a1-3)]Man(b1-4)GlcNAc(b1-4)GlcNAc
# Method in brief: as §1
# [31] = biological target: Man(a1-3)[Man(a1-6)]Man(a1-6)[Man(a1-3)]Man
# Method in brief: as §1
# [32] = biological target: Man(a1-3)[Man(a1-6)]Man(a1-6)[Man(a1-3)]Man(b1-4)GlcNAc(b1-4)GlcNAc
# Method in brief: as §1
# [33] = biological target: Man(a1-3)[Man(a1-6)]Man(b1-4)GlcNAc(b1-4)GlcNAc
# Method in brief: as §1
# [34] = biological target: Man(a1-3)[Man(a1-6)]Man(b1-4)GlcNAc(b1-4)[Fuc(a1-6)]GlcNAc
# Method in brief: as §1
# [35] = biological target: Man(a1-6)Man
# Method in brief: as §1
# [36] = biological target: Man(b1-4)GlcNAc
# Method in brief: as §1
# [37] = biological target: MurNAc(b1-4)GlcNAc
# Method in brief: as §1
# [38] = biological target: Neu5Ac(a2-3)Gal
# Method in brief: as §1
binder,measurement,setting,value
B1,glycan array binding signal (z-score),[1],1.14
same,glycan array binding signal (z-score),[2],-0.699
same,glycan array binding signal (z-score),[3],0.14
same,glycan array binding signal (z-score),[4],-0.77
same,glycan array binding signal (z-score),[5],-0.66
same,glycan array binding signal (z-score),[6],-0.812
same,glycan array binding signal (z-score),[7],-0.869
same,glycan array binding signal (z-score),[8],-0.732
same,glycan array binding signal (z-score),[9],-0.84
same,glycan array binding signal (z-score),[10],-0.75
same,glycan array binding signal (z-score),[11],0.45
same,glycan array binding signal (z-score),[12],-0.029
same,glycan array binding signal (z-score),[13],1.06
same,glycan array binding signal (z-score),[14],0.428
same,glycan array binding signal (z-score),[15],1.03
same,glycan array binding signal (z-score),[16],-0.854
same,glycan array binding signal (z-score),[17],-0.733
same,glycan array binding signal (z-score),[18],-0.311
same,glycan array binding signal (z-score),[19],0.077
same,glycan array binding signal (z-score),[20],-0.911
same,glycan array binding signal (z-score),[21],-0.819
same,glycan array binding signal (z-score),[22],-0.821
same,glycan array binding signal (z-score),[23],-0.919
same,glycan array binding signal (z-score),[24],-0.77
same,glycan array binding signal (z-score),[25],-0.524
same,glycan array binding signal (z-score),[26],-0.618
same,glycan array binding signal (z-score),[27],-0.861
same,glycan array binding signal (z-score),[28],0.65
same,glycan array binding signal (z-score),[29],-0.77
same,glycan array binding signal (z-score),[30],2.84
same,glycan array binding signal (z-score),[31],-0.58
same,glycan array binding signal (z-score),[32],0.373
same,glycan array binding signal (z-score),[33],-0.766
same,glycan array binding signal (z-score),[34],-0.839
same,glycan array binding signal (z-score),[35],0.079
same,glycan array binding signal (z-score),[36],-0.74
same,glycan array binding signal (z-score),[37],-0.903
same,glycan array binding signal (z-score),[38],-0.866

# Pulled one by one from above (3):
binder,measurement,setting,value
B1,glycan array binding signal (z-score),[20],-0.911
same,glycan array binding signal (z-score),[31],-0.58
same,glycan array binding signal (z-score),[36],-0.74
